This is one part of the list.
Columns and labels:
Test in all cases: glycan array binding signal (z-score within array); higher = stronger binding
Conditions in all cases: glycan notation: IUPAC condensed, linker removed
Fuc(a1-2)Gal = target: Fuc(a1-2)Gal
Procedure, shortened: (§1)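 Arrays were curated from the Consortium for Functional Glycomics database, 3228 in total, and kept only where the protein sequence was available. Binding is expressed as a within-array Z-score. This score was averaged across arrays of the same protein sequence at different concentrations or buffers and across linkers, and negative values can be read as non-binding.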

Fuc(a1-2)Gal(b1-3)GalNAc = target: Fuc(a1-2)Gal(b1-3)GalNAc
Procedure, shortened: as §1

[1] = target: Fuc(a1-2)Gal(b1-3)GalNAc(a1-3)[Fuc(a1-2)]Gal(b1-4)Glc
Procedure, shortened: as §1

[2] = target: Fuc(a1-2)Gal(b1-3)GalNAc(a1-3)[Fuc(a1-2)]Gal(b1-4)GlcNAc
Procedure, shortened: as §1

[3] = target: Fuc(a1-2)Gal(b1-3)GalNAc(b1-3)Gal
Procedure, shortened: as §1

[4] = target: Fuc(a1-2)Gal(b1-3)GalNAc(b1-3)Gal(a1-4)Gal(b1-4)Glc
Procedure, shortened: as §1

[5] = target: Fuc(a1-2)Gal(b1-3)GalNAc(b1-4)[Neu5Ac(a2-3)]Gal(b1-4)Glc
Procedure, shortened: as §1

Fuc(a1-2)Gal(b1-3)GlcNAc = target: Fuc(a1-2)Gal(b1-3)GlcNAc
Procedure, shortened: as §1

[6] = target: Fuc(a1-2)Gal(b1-3)GlcNAc(b1-2)Man(a1-3)[Fuc(a1-2)Gal(b1-3)GlcNAc(b1-2)Man(a1-6)]Man(b1-4)GlcNAc(b1-4)GlcNAc
Procedure, shortened: as §1

[7] = target: Fuc(a1-2)Gal(b1-3)GlcNAc(b1-2)Man(a1-3)[Fuc(a1-2)Gal(b1-3)GlcNAc(b1-2)Man(a1-6)]Man(b1-4)GlcNAc(b1-4)[Fuc(a1-6)]GlcNAc
Procedure, shortened: as §1

[8] = target: Fuc(a1-2)Gal(b1-3)GlcNAc(b1-3)Gal(b1-4)Glc
Procedure, shortened: as §1

[9] = target: Fuc(a1-2)Gal(b1-3)GlcNAc(b1-3)GalNAc
Procedure, shortened: as §1

[10] = target: Fuc(a1-2)Gal(b1-3)GlcNAc(b1-3)[Fuc(a1-3)[Gal(b1-4)]GlcNAc(b1-6)]Gal(b1-4)Glc
Procedure, shortened: as §1

[11] = target: Fuc(a1-2)Gal(b1-3)GlcNAc(b1-3)[Gal(b1-4)GlcNAc(b1-6)]Gal(b1-4)Glc
Procedure, shortened: as §1

[12] = target: Fuc(a1-2)Gal(b1-3)GlcNAc(b1-3)[Neu5Ac(a2-6)Gal(b1-4)GlcNAc(b1-6)]Gal(b1-4)Glc
Procedure, shortened: as §1

[13] = target: Fuc(a1-2)Gal(b1-3)[Fuc(a1-4)]GlcNAc
Procedure, shortened: as §1

[14] = target: Fuc(a1-2)Gal(b1-3)[Fuc(a1-4)]GlcNAc(b1-2)Man(a1-3)[Fuc(a1-2)Gal(b1-3)[Fuc(a1-4)]GlcNAc(b1-2)Man(a1-6)]Man(b1-4)GlcNAc(b1-4)GlcNAc
Procedure, shortened: as §1

[15] = target: Fuc(a1-2)Gal(b1-3)[Fuc(a1-4)]GlcNAc(b1-3)[Fuc(a1-3)[Gal(b1-4)]GlcNAc(b1-6)]Gal(b1-4)Glc
Procedure, shortened: as §1

[16] = target: Fuc(a1-2)Gal(b1-3)[Fuc(a1-4)]GlcNAc(b1-3)[Gal(b1-4)GlcNAc(b1-6)]Gal(b1-4)Glc
Procedure, shortened: as §1

Fuc(a1-2)Gal(b1-4)Glc = target: Fuc(a1-2)Gal(b1-4)Glc
Procedure, shortened: as §1

Fuc(a1-2)Gal(b1-4)Glc6S = target: Fuc(a1-2)Gal(b1-4)Glc6S
Procedure, shortened: as §1

Fuc(a1-2)Gal(b1-4)GlcNAc = target: Fuc(a1-2)Gal(b1-4)GlcNAc
Procedure, shortened: as §1

[17] = target: Fuc(a1-2)Gal(b1-4)GlcNAc(b1-2)Man(a1-3)[Fuc(a1-2)Gal(b1-4)GlcNAc(b1-2)Man(a1-6)]Man(b1-4)GlcNAc(b1-4)GlcNAc
Procedure, shortened: as §1

[18] = target: Fuc(a1-2)Gal(b1-4)GlcNAc(b1-2)Man(a1-3)[Fuc(a1-2)Gal(b1-4)GlcNAc(b1-2)Man(a1-6)]Man(b1-4)GlcNAc(b1-4)[Fuc(a1-6)]GlcNAc
Procedure, shortened: as §1

[19] = target: Fuc(a1-2)Gal(b1-4)GlcNAc(b1-2)[Fuc(a1-2)Gal(b1-4)GlcNAc(b1-4)]Man(a1-3)[Fuc(a1-2)Gal(b1-4)GlcNAc(b1-2)Man(a1-6)]Man(b1-4)GlcNAc(b1-4)GlcNAc
Procedure, shortened: as §1

[20] = target: Fuc(a1-2)Gal(b1-4)GlcNAc(b1-3)Gal(b1-4)GlcNAc
Procedure, shortened: as §1

[21] = target: Fuc(a1-2)Gal(b1-4)GlcNAc(b1-3)Gal(b1-4)GlcNAc(b1-3)Gal(b1-4)GlcNAc
Procedure, shortened: as §1

[22] = target: Fuc(a1-2)Gal(b1-4)GlcNAc(b1-3)GalNAc
Procedure, shortened: as §1

[23] = target: Fuc(a1-2)Gal(b1-4)GlcNAc(b1-3)[Fuc(a1-2)Gal(b1-4)GlcNAc(b1-6)]GalNAc
Procedure, shortened: as §1

[24] = target: Fuc(a1-2)Gal(b1-4)GlcNAc6S
Procedure, shortened: as §1

B1: NanH (Corynebacterium diphtheriae), C6JSW6 (protein)
chain: MYSSNRTYSRAILGLSAVLTLSFTSLVAPVNAEEPETVVPATAELEGEVAATLPSAETGLLDAAPPKPVARGAAGDLQLPAVNEKEVFEEGRVIRAPEPDQSRCYRIPALVTAKNGDLLLAFDNRYGGGDGAKTWCRDAPYENMKRINRQNMQTDIQLYRSVDNGQSFEDFGYIAQGTADVRELSYTDPALVTDRTTGKIFAFFVRAYDYRVGQSSAGFNEGDVEAEIQKRDVQDTVVVESLDGGQTWGNMRLLSALTAKVSSISTGDTIFDGRGRFVTSGAGIQLQYGEHAGRLIVPISVDIDPKDSAKFINLAIYSDDHGQTWQAGIGTAGGAGFSGDVSKIVELSDGRLMMSSKDNDKPRWVSYSEDQGENWSTPKRKIIAPPQHPEKHNTGINVGLIRAYPNAPENSAAARVLLYSAPIDQRYSHKHTEDGRNNGWVMGSCDDGKTWSFGRQIEKNRFQYSSMTVMSDGNIGMVYESGDFSTGMNLKFAKFNMAWLGADCHSNEALGLTGDIDKEIVEAQEKAAEATKEAQEAAEKVQKLTEELAAARKENDELKNQVKGFKEAVGDLANEAEDLADKVFKLETAVTEAKEKATVAEKAASDAVTQLQKAESIAEEQKAKAESAAAEAQALREKLERLEGSILTVKENPEAEEIADLSSTAKDAADAARRAATDANGALSGQKQDEEKPAMGLMGILKVLAGIIPLVAIIATIFQTFRLPFNIPGMR
glycan array binding signal (z-score) (Fuc(a1-2)Gal): 2.31
glycan array binding signal (z-score) (Fuc(a1-2)Gal(b1-3)GalNAc): -0.163
glycan array binding signal (z-score) [1]: -0.302
glycan array binding signal (z-score) [2]: 0.088
glycan array binding signal (z-score) [3]: -0.678
glycan array binding signal (z-score) [4]: -0.943
glycan array binding signal (z-score) [5]: 1.01
glycan array binding signal (z-score) (Fuc(a1-2)Gal(b1-3)GlcNAc): 0.544
glycan array binding signal (z-score) [6]: 0.302
glycan array binding signal (z-score) [7]: 0.487
glycan array binding signal (z-score) [8]: -0.417
glycan array binding signal (z-score) [9]: 0.539
glycan array binding signal (z-score) [10]: -1.23
glycan array binding signal (z-score) [11]: -0.487
glycan array binding signal (z-score) [12]: 0.171
glycan array binding signal (z-score) [13]: -0.238
glycan array binding signal (z-score) [14]: 1.88
glycan array binding signal (z-score) [15]: 0.526
glycan array binding signal (z-score) [16]: -0.64
glycan array binding signal (z-score) (Fuc(a1-2)Gal(b1-4)Glc): 0.081
glycan array binding signal (z-score) (Fuc(a1-2)Gal(b1-4)Glc6S): -1.08
glycan array binding signal (z-score) (Fuc(a1-2)Gal(b1-4)GlcNAc): 1.32
glycan array binding signal (z-score) [17]: 2.08
glycan array binding signal (z-score) [18]: 1.01
glycan array binding signal (z-score) [19]: 0.4
glycan array binding signal (z-score) [20]: -1.26
glycan array binding signal (z-score) [21]: -0.792
glycan array binding signal (z-score) [22]: -0.349
glycan array binding signal (z-score) [23]: 1.09
glycan array binding signal (z-score) [24]: -0.645

— the supplement of paper PMC8728848
